Values quoted from earlier work as cited in patent publication US20070086972A1, “HAIR GROWTH COMPOSITIONS AND METHODS FOR TREATING HAIR LOSS OR RELATED CONDITIONS” (priority 2005, published 2007).
At least one compound was matched to its structure with a doubt left.

Test system: terminal hair growth
Details: topical application, after four months of treatment

Nc1cc(N2CCCCC2)nc(N)[n+]1[O-] [minoxidil]
increase in terminal hair growth between minoxidil and placebo treatment groups: no significant increase in terminal hair growth
